Our source for the binding values is patent publication US20130281314A1.

Sequences of proteins named here, by UniProt entry; tags and fusion partners are left off. A change or cut given only in a name is not applied to a line headed by its entry. A line that says so, or that is headed by a name, gives the form on record, which may keep a tag or linker.
USP7catC223A (Q93009, form named): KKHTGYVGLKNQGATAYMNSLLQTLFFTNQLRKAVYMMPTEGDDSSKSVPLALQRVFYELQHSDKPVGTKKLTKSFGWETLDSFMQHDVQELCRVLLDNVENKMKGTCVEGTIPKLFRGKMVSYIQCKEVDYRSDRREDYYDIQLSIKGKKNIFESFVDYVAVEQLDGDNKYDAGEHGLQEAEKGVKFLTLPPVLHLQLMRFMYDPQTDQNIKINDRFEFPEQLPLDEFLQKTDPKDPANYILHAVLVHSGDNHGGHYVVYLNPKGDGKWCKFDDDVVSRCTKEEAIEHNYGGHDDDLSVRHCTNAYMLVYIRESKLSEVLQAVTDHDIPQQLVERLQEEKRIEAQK

Substitutions are numbered along the chain they refer to. Results are given in words; binding and its absence hold for the method and conditions named. Some entries that bind do so weakly or less than the wild type.

This assay concerns the target USP7catC223A (UniProt Q93009). Kind of assay: protein ELISA, His-tagged variant on captured biotinylated USP7catC223A. On the technique in general: An ELISA detects its analyte on a solid surface through an enzyme-linked reagent.

B1: U7Ub25.54 (designed binder)
ubiquitin variant: MQIFVKFRTGKTYTLEVEPSDTIENVKAKIQDKLGIPPDQQRLIFGGKLLEDGRTLSDYNIEKESTLHGVRRLRGG
Regarding B1, the binding entry is recorded as “binds”.

B2: U7Ub25.58 (designed binder)
ubiquitin variant: B1 ubiquitin variant with R42T, G46S, S65A, V70I
Regarding B2, the binding entry is “binds”.
